# Assay results reported in the supplement of paper PMC8728848.
# This is one part of the list.
# B1: Drgal1 (Danio rerio) (protein)
# chain: MAGVLIQNMSFKVGQTLTITGVPKPDSTNFAINIGHSPEDIALHMNPRFDAHGDQCTIVCNSFQSGSWCEEHRDDNFPFIQDKEFQIKITFTNEEFLVTLPDGSEIHFPNRQGSEKYKYMYFEGEVRIQGVEIK
# Tests used:
# Experiment in all cases: glycan array binding signal (z-score within array); higher = stronger binding
# Settings in all cases: glycan notation: IUPAC condensed, linker removed
# [1] = molecular target: Neu5Ac(a2-6)Gal(b1-4)GlcNAc(b1-3)Gal(b1-4)GlcNAc(b1-2)Man(a1-3)[Neu5Ac(a2-6)Gal(b1-4)GlcNAc(b1-3)Gal(b1-4)GlcNAc(b1-2)Man(a1-6)]GalNAc
# Summary of the method: (§1)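 Glycan array data came from 3228 arrays in the Consortium for Functional Glycomics database, and only arrays with an available protein sequence were kept. Glycan names were put into IUPAC-condensed notation, and columns mapping to the same glycan were averaged. The binding signal is a within-array Z-score, averaged across arrays of one protein sequence run at different concentrations or buffers and across linkers. A negative Z-score can be read as non-binding.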
# [2] = molecular target: Neu5Ac(a2-6)Gal(b1-4)GlcNAc(b1-3)Gal(b1-4)GlcNAc(b1-3)Gal(b1-4)GlcNAc
# Summary of the method: as §1
# [3] = molecular target: Neu5Ac(a2-6)Gal(b1-4)GlcNAc(b1-3)Gal(b1-4)GlcNAc(b1-3)Gal(b1-4)GlcNAc(b1-2)Man(a1-3)[Neu5Ac(a2-6)Gal(b1-4)GlcNAc(b1-3)Gal(b1-4)GlcNAc(b1-3)Gal(b1-4)GlcNAc(b1-2)Man(a1-6)]GalNAc
# Summary of the method: as §1
# [4] = molecular target: Neu5Ac(a2-6)Gal(b1-4)GlcNAc(b1-3)Gal(b1-4)GlcNAc(b1-3)GalNAc
# Summary of the method: as §1
# [5] = molecular target: Neu5Ac(a2-6)Gal(b1-4)GlcNAc(b1-3)Gal(b1-4)GlcNAc(b1-3)[Neu5Ac(a2-6)Gal(b1-4)GlcNAc(b1-3)Gal(b1-4)GlcNAc(b1-6)]GalNAc
# Summary of the method: as §1
# [6] = molecular target: Neu5Ac(a2-6)Gal(b1-4)GlcNAc(b1-3)Gal(b1-4)GlcNAc(b1-6)[Gal(b1-3)]GalNAc
# Summary of the method: as §1
# [7] = molecular target: Neu5Ac(a2-6)Gal(b1-4)GlcNAc(b1-3)Gal(b1-4)[Fuc(a1-3)]GlcNAc(b1-3)Gal(b1-4)[Fuc(a1-3)]GlcNAc
# Summary of the method: as §1
# [8] = molecular target: Neu5Ac(a2-6)Gal(b1-4)GlcNAc(b1-3)GalNAc
# Summary of the method: as §1
# [9] = molecular target: Neu5Ac(a2-6)Gal(b1-4)GlcNAc(b1-3)[Neu5Ac(a2-6)Gal(b1-4)GlcNAc(b1-6)]GalNAc
# Summary of the method: as §1
# [10] = molecular target: Neu5Ac(a2-6)Gal(b1-4)GlcNAc(b1-6)GalNAc
# Summary of the method: as §1
# [11] = molecular target: Neu5Ac(a2-6)Gal(b1-4)GlcNAc(b1-6)[Gal(b1-3)GlcNAc(b1-3)]Gal(b1-4)Glc
# Summary of the method: as §1
# [12] = molecular target: Neu5Ac(a2-6)Gal(b1-4)GlcNAc(b1-6)[Gal(b1-3)]GalNAc
# Summary of the method: as §1
# [13] = molecular target: Neu5Ac(a2-6)Gal(b1-4)GlcNAc6S
# Summary of the method: as §1
# [14] = molecular target: Neu5Ac(a2-6)GalNAc
# Summary of the method: as §1
# [15] = molecular target: Neu5Ac(a2-6)GalNAc(b1-4)GlcNAc
# Summary of the method: as §1
# [16] = molecular target: Neu5Ac(a2-6)GalNAc(b1-4)GlcNAc6S
# Summary of the method: as §1
# [17] = molecular target: Neu5Ac(a2-6)GlcNAc(b1-4)GlcNAc
# Summary of the method: as §1
# [18] = molecular target: Neu5Ac(a2-6)GlcNAc(b1-4)GlcNAc(b1-4)GlcNAc
# Summary of the method: as §1
# [19] = molecular target: Neu5Ac(a2-8)Neu5Ac
# Summary of the method: as §1
# [20] = molecular target: Neu5Ac(a2-8)Neu5Ac(a2-3)Gal(b1-3)GalNAc(b1-4)[Neu5Ac(a2-3)]Gal(b1-4)Glc
# Summary of the method: as §1
# [21] = molecular target: Neu5Ac(a2-8)Neu5Ac(a2-3)Gal(b1-3)GalNAc(b1-4)[Neu5Ac(a2-8)Neu5Ac(a2-3)]Gal(b1-4)Glc
# Summary of the method: as §1
# [22] = molecular target: Neu5Ac(a2-8)Neu5Ac(a2-3)Gal(b1-4)Glc
# Summary of the method: as §1
# [23] = molecular target: Neu5Ac(a2-8)Neu5Ac(a2-3)Gal(b1-4)GlcNAc
# Summary of the method: as §1
# [24] = molecular target: Neu5Ac(a2-8)Neu5Ac(a2-3)[Gal(b1-3)GalNAc(b1-4)]Gal(b1-4)Glc
# Summary of the method: as §1
# [25] = molecular target: Neu5Ac(a2-8)Neu5Ac(a2-3)[GalNAc(b1-4)]Gal(b1-4)Glc
# Summary of the method: as §1
# [26] = molecular target: Neu5Ac(a2-8)Neu5Ac(a2-8)Neu5Ac
# Summary of the method: as §1
# [27] = molecular target: Neu5Ac(a2-8)Neu5Ac(a2-8)Neu5Ac(a2-3)Gal(b1-4)Glc
# Summary of the method: as §1
# [28] = molecular target: Neu5Ac(a2-8)Neu5Ac(a2-8)Neu5Ac(a2-3)[Gal(b1-3)GalNAc(b1-4)]Gal(b1-4)Glc
# Summary of the method: as §1
# [29] = molecular target: Neu5Ac(a2-8)Neu5Ac(a2-8)Neu5Ac(a2-3)[GalNAc(b1-4)]Gal(b1-4)Glc
# Summary of the method: as §1
# [30] = molecular target: Neu5Ac(a2-8)Neu5Ac(a2-8)Neu5Ac(a2-8)Neu5Ac(a2-3)[GalNAc(b1-4)]Gal(b1-4)Glc
# Summary of the method: as §1
# [31] = molecular target: Neu5Ac(a2-8)Neu5Gc(a2-3)Gal(b1-4)GlcNAc
# Summary of the method: as §1
# [32] = molecular target: Neu5Ac(b2-6)Gal(b1-4)GlcNAc
# Summary of the method: as §1
# [33] = molecular target: Neu5Ac(b2-6)GalNAc
# Summary of the method: as §1
# [34] = molecular target: Neu5Ac9Ac(a2-3)Gal(b1-3)GlcNAc
# Summary of the method: as §1
# [35] = molecular target: Neu5Ac9Ac(a2-3)Gal(b1-4)GlcNAc
# Summary of the method: as §1
# [36] = molecular target: Neu5Ac9Ac(a2-6)Gal(b1-4)GlcNAc
# Summary of the method: as §1
# [37] = molecular target: Neu5Gc(a2-3)Gal(b1-3)GlcNAc
# Summary of the method: as §1
# [38] = molecular target: Neu5Gc(a2-3)Gal(b1-3)[Fuc(a1-4)]GlcNAc
# Summary of the method: as §1
# [39] = molecular target: Neu5Gc(a2-3)Gal(b1-4)Glc
# Summary of the method: as §1
# [40] = molecular target: Neu5Gc(a2-3)Gal(b1-4)GlcNAc
# Summary of the method: as §1
# [41] = molecular target: Neu5Gc(a2-3)Gal(b1-4)GlcNAc(b1-3)Gal(b1-4)GlcNAc(b1-2)Man(a1-3)[Neu5Gc(a2-3)Gal(b1-4)GlcNAc(b1-3)Gal(b1-4)GlcNAc(b1-2)Man(a1-6)]Man(b1-4)GlcNAc(b1-4)GlcNAc
# Summary of the method: as §1
# [42] = molecular target: Neu5Gc(a2-3)Gal(b1-4)[Fuc(a1-3)]GlcNAc
# Summary of the method: as §1
# [43] = molecular target: Neu5Gc(a2-6)Gal(b1-4)GlcNAc
# Summary of the method: as §1
# [44] = molecular target: Neu5Gc(a2-6)GalNAc
# Summary of the method: as §1
# [45] = molecular target: Neu5Gc(a2-8)Neu5Ac(a2-3)Gal(b1-4)GlcNAc
# Summary of the method: as §1
binder,measurement,setting,value
B1,glycan array binding signal (z-score),[1],0.461
same,glycan array binding signal (z-score),[2],0.629
same,glycan array binding signal (z-score),[3],0.48
same,glycan array binding signal (z-score),[4],-0.157
same,glycan array binding signal (z-score),[5],0.01
same,glycan array binding signal (z-score),[6],-0.18
same,glycan array binding signal (z-score),[7],-0.061
same,glycan array binding signal (z-score),[8],0.401
same,glycan array binding signal (z-score),[9],-0.513
same,glycan array binding signal (z-score),[10],-0.312
same,glycan array binding signal (z-score),[11],-0.594
same,glycan array binding signal (z-score),[12],-0.43
same,glycan array binding signal (z-score),[13],-0.043
same,glycan array binding signal (z-score),[14],-0.418
same,glycan array binding signal (z-score),[15],-0.481
same,glycan array binding signal (z-score),[16],-0.364
same,glycan array binding signal (z-score),[17],-0.61
same,glycan array binding signal (z-score),[18],-0.281
same,glycan array binding signal (z-score),[19],-0.202
same,glycan array binding signal (z-score),[20],-0.215
same,glycan array binding signal (z-score),[21],-0.326
same,glycan array binding signal (z-score),[22],-0.282
same,glycan array binding signal (z-score),[23],-0.918
same,glycan array binding signal (z-score),[24],-0.531
same,glycan array binding signal (z-score),[25],0.12
same,glycan array binding signal (z-score),[26],-0.42
same,glycan array binding signal (z-score),[27],-0.5
same,glycan array binding signal (z-score),[28],-0.523
same,glycan array binding signal (z-score),[29],-0.081
same,glycan array binding signal (z-score),[30],-0.304
same,glycan array binding signal (z-score),[31],-0.631
same,glycan array binding signal (z-score),[32],0.234
same,glycan array binding signal (z-score),[33],-0.504
same,glycan array binding signal (z-score),[34],-0.15
same,glycan array binding signal (z-score),[35],-0.247
same,glycan array binding signal (z-score),[36],0.335
same,glycan array binding signal (z-score),[37],-0.439
same,glycan array binding signal (z-score),[38],-0.286
same,glycan array binding signal (z-score),[39],0.145
same,glycan array binding signal (z-score),[40],-0.419
same,glycan array binding signal (z-score),[41],-0.111
same,glycan array binding signal (z-score),[42],0.593
same,glycan array binding signal (z-score),[43],0.309
same,glycan array binding signal (z-score),[44],-0.574
same,glycan array binding signal (z-score),[45],-0.248

# Taken from above (ten entries):
binder,measurement,setting,value
B1,glycan array binding signal (z-score),[11],-0.594
same,glycan array binding signal (z-score),[12],-0.43
same,glycan array binding signal (z-score),[13],-0.043
same,glycan array binding signal (z-score),[14],-0.418
same,glycan array binding signal (z-score),[15],-0.481
same,glycan array binding signal (z-score),[16],-0.364
same,glycan array binding signal (z-score),[17],-0.61
same,glycan array binding signal (z-score),[18],-0.281
same,glycan array binding signal (z-score),[19],-0.202
same,glycan array binding signal (z-score),[20],-0.215
